Consider 54 sequences from paper PMC7819943, “Rice protein-binding microarrays: a tool to detect cis-acting elements near promoter regions in rice”.

Sequences of proteins named here, by UniProt entry; tags and fusion partners are left off.
UniProt Q0JBA9, entry or part of it: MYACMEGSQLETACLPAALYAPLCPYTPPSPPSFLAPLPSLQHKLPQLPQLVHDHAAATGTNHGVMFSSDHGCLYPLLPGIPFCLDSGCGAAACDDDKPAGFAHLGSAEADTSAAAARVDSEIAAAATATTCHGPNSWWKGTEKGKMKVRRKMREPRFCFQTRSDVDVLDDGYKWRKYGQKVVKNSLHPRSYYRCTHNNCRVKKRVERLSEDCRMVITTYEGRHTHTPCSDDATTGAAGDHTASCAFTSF

The other results are listed elsewhere or left out.

In the test the target is OsWRKY34 (Oryza sativa, UniProt Q0JBA9 1-250). Kind of test: protein-binding microarray (RPBM); PBS, 2% BSA, 51.3 ng/ul salmon testes DNA, 50 uM zinc acetate, 200 nM TF, 25 C, 1 h; high values mean tight binding. The conditions noted are these: protein: recombinant; tags: N-terminal polyhistidine and DsRed monomer fusion (pET32a); label: CyDye5-dUTP incorporated in the synthesized complementary strand; 3' TTTTT single-stranded linker to array surface; dsDNA, one strand shown. The gist of the method:
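Per-feature fluorescence intensity (arbitrary units), read on an Axon 4000B scanner, is the binding signal. Transcription factors carrying an N-terminal polyhistidine tag and DsRed fusion were expressed in E. coli BL21-CodonPlus and purified on Ni–NTA. A custom Agilent array, made double-stranded by primer extension with Cy5-dUTP and blocked with 2% BSA, was incubated with 200 nM protein in PBS, 2% BSA, salmon testes DNA and 50 µM zinc acetate at 25 °C for 1 h and then washed.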
In the case of “TCTGTGGTGATTTGTGCTGCGAGAGAAACTTCTTTGTCGACGGAGTCACCTAGTGCAG”, the binding signal was 8740 fluorescence intensity (a.u.).
Next, “AATATGGATTGATTATGGTTGTGTTTTAGATGCCTTTCCTCGGAGTCACCTAGTGCAG”: 8910 fluorescence intensity (a.u.); “ACATTACGTCTTAGAGTCCGTGCTGCAGCTGACTACATATCGGAGTCACCTAGTGCAG”: 8660 fluorescence intensity (a.u.); “ATTTAATTCGGTCACCACGAATACCGCATCAATATTGTGCCGGAGTCACCTAGTGCAG”: 8190 fluorescence intensity (a.u.).
Next, “GTAACCCTAATTTCAGAAACTAAACACAGTCACGTAAGAACGGAGTCACCTAGTGCAG”: 65500 fluorescence intensity (a.u.); “TGTTGAATTCTGCTTCACTTTTCAGTCTTAGTTCTTAGAACGGAGTCACCTAGTGCAG”: 8040 fluorescence intensity (a.u.).
For the sequence “ACGCGATATCACACTCACACATCCACGAATACATCGCCTACGGAGTCACCTAGTGCAG”, the binding signal was 10500 fluorescence intensity (a.u.).
Next, “GCCTCGTTCCCGCGGACTCCGACCTCTCCCGAATCCCTTTCGGAGTCACCTAGTGCAG”: 8280 fluorescence intensity (a.u.).
Next, “ATAATTCGTCGTCCATTAGCTCAGCAATTCTCCTTCTCGTCGGAGTCACCTAGTGCAG”: 10200 fluorescence intensity (a.u.); “CCATTTCATATTATAAGTCGTTTTACTTTTTTCTTAATAACGGAGTCACCTAGTGCAG”: 8480 fluorescence intensity (a.u.); “CCCATCACATCACACCGGCCCGCTTCTCTCTCGCGCGCGCCGGAGTCACCTAGTGCAG”: 11100 fluorescence intensity (a.u.).
Consider “GTCTCTGTCTTGATCTCTCAATCTCTCTTCTGACCGTCCTCGGAGTCACCTAGTGCAG”, for which the binding signal is 8550 fluorescence intensity (a.u.).
Next, “TCGCACACGTCGCCGCCGCCGTAATCGCATCTGCCCATGGCGGAGTCACCTAGTGCAG”: 8720 fluorescence intensity (a.u.).
As for “GGATAATTTTGCTTTCCTTGAGGTTCATTCCAATTATTTTCGGAGTCACCTAGTGCAG”, the binding signal is 9470 fluorescence intensity (a.u.).
Next, “CTCACTGATGACTACTACTATTCATTTAATCATTTATACCCGGAGTCACCTAGTGCAG”: 9360 fluorescence intensity (a.u.); “TAGCTGTTTGGTCTTGCTGGTGGTGGTGGGTGAGTGTTGGCGGAGTCACCTAGTGCAG”: 11200 fluorescence intensity (a.u.).
Next, “CTCTCTTTCTCTTCCATTTCTTGAAACTTGTATGGAGGTTCGGAGTCACCTAGTGCAG”: 9410 fluorescence intensity (a.u.); “GATCGTCTCCAACGCACACTGATCTCCCCTGCGGCCTCTCCGGAGTCACCTAGTGCAG”: 9560 fluorescence intensity (a.u.); “GGTTGGTGACTCACCATCTTGGCGCCCGTCCCGTCTCGTCCGGAGTCACCTAGTGCAG”: 10200 fluorescence intensity (a.u.).
As for “TGGGACTACTTATACATGTATTGATAAATTTTCTTTCACACGGAGTCACCTAGTGCAG”, the binding signal was 10400 fluorescence intensity (a.u.).
Next, “CATCCAGCCTCGACGTGCCGGCGGCGGTGGGTGGCGGGGCCGGAGTCACCTAGTGCAG”: 8680 fluorescence intensity (a.u.); “ATTTGTCGATGTTACAGGGCGAAAATTTTGGGGTGGGATCCGGAGTCACCTAGTGCAG”: 14800 fluorescence intensity (a.u.); “TCAGGGGCTAGCTCCTTTGCGCTGCGGCTTTGACCGCGGTCGGAGTCACCTAGTGCAG”: 9050 fluorescence intensity (a.u.).
Next, “CTTCTGAATCTGCTGATCGCTTAATGCGCCGTGTAAAGACCGGAGTCACCTAGTGCAG”: 8570 fluorescence intensity (a.u.); “GTCTTCCCAAAATCTTATTTCTATTCCATTACCAGGTTTACGGAGTCACCTAGTGCAG”: 9280 fluorescence intensity (a.u.).
Next, “TTACACTGTTCATGTCTCACGTTTGACCGTTCGTTTTATTCGGAGTCACCTAGTGCAG”: 16400 fluorescence intensity (a.u.); “CCCGGGAACACGCTCCAGAGATGCTGACTATCTTTCCCTTCGGAGTCACCTAGTGCAG”: 8070 fluorescence intensity (a.u.); “ATTCCTCCAGCCTCTCTGTTCGTGCGTGCCGTCGCCGTCGCGGAGTCACCTAGTGCAG”: 9310 fluorescence intensity (a.u.).
As for “CGTCATGGTTCAGCAATTTCAGGCGTCTTCTTTCAGTGTCCGGAGTCACCTAGTGCAG”, the binding signal is 8690 fluorescence intensity (a.u.).
Next, “GTCATACCACCTTACTTTTTACGTTTGAATCACCATTCTACGGAGTCACCTAGTGCAG”: 10900 fluorescence intensity (a.u.).
Next, “TCTATTGTCTTCGATGTGGAGTTGTGTTCGAACTTTGAACCGGAGTCACCTAGTGCAG”: 8240 fluorescence intensity (a.u.).
Consider “TGTGTTGGATCGGTTGGACGCGCTCACTCGGTTTGGTTTGCGGAGTCACCTAGTGCAG”, for which the binding signal is 9730 fluorescence intensity (a.u.).
Next, “CTCTCTCATCTCGCATTGGTTATTTATTCGCCTCCTCCGCCGGAGTCACCTAGTGCAG”: 11700 fluorescence intensity (a.u.); “AGTACAGCAGTATCCCGTTTCGTTTGGGCTTTTGGTGGGGCGGAGTCACCTAGTGCAG”: 15800 fluorescence intensity (a.u.).
Next, “TCCATCACTAGCTATTTTGGTACTTTCATCTACTTATTACCGGAGTCACCTAGTGCAG”: 8340 fluorescence intensity (a.u.); “AATCCAGCTGCCGCGCGCGTCAATCACTCTCGTCCACACCCGGAGTCACCTAGTGCAG”: 8940 fluorescence intensity (a.u.).
Next, “AACGGCTATCGGCGGGGTGGGGCAGCGACCATCGAGCTTCCGGAGTCACCTAGTGCAG”: 11900 fluorescence intensity (a.u.).
As for “GCATTACCTCGCGATCTCCTTCCCAATTTTGGTCTCTTCCCGGAGTCACCTAGTGCAG”, the binding signal was 14200 fluorescence intensity (a.u.).
Next, “CACTACTACTGCCACAAACGCCACACACGATATAGCTATACGGAGTCACCTAGTGCAG”: 8390 fluorescence intensity (a.u.); “ACATCAGATACATTTCGCATCTTTATTTTTCTCACCATTTCGGAGTCACCTAGTGCAG”: 8680 fluorescence intensity (a.u.); “CCTGCCCGTCTCTCGCAGTCTCGCATTTCTCTCTTTTTCTCGGAGTCACCTAGTGCAG”: 12100 fluorescence intensity (a.u.).
Next, “TCCCCGGGCCTCTCTCTGATCCCGTATTCACCGGTGACCACGGAGTCACCTAGTGCAG”: 12200 fluorescence intensity (a.u.); “ACCTTCCGGATTCCGGCCATCTTCGTTTCTCGTCTTCGCCCGGAGTCACCTAGTGCAG”: 9180 fluorescence intensity (a.u.).
Next, “GCCTCATCGTCCTCCGATTCCATTCCGCCATGGTCGACGACGGAGTCACCTAGTGCAG”: 8220 fluorescence intensity (a.u.).
Turning to “ACACACACACACAAACACTGCAAGGTTTGTTTTCTTATCACGGAGTCACCTAGTGCAG”, the binding signal was 8680 fluorescence intensity (a.u.).
Next, “GATGTGGGCTAGCTTATGGTTTATTTTCCTGCTAAAATTGCGGAGTCACCTAGTGCAG”: 8830 fluorescence intensity (a.u.); “CCAACCCGCCGCTGGCTCGCTTTATATCCCGCGTGAGCTCCGGAGTCACCTAGTGCAG”: 11700 fluorescence intensity (a.u.); “TCTCTTCCGAGTTCCGACTTTCGAAATTTCCAAAACCCTCCGGAGTCACCTAGTGCAG”: 8230 fluorescence intensity (a.u.).
Take “GCAAGGTTTCCGTTTCTGCCCACGCCAAAGCGGCCAACAACGGAGTCACCTAGTGCAG”: the binding signal is 9220 fluorescence intensity (a.u.).
Next, “CAATATTAATAATCGGTCCCACTTATCATACACACGTTTTCGGAGTCACCTAGTGCAG”: 9260 fluorescence intensity (a.u.); “AATCTTCTTTGTATTTTATTGCTCTTAATTTAATTATGCTCGGAGTCACCTAGTGCAG”: 9530 fluorescence intensity (a.u.).
Next, “CGGAGTTTTCTTTGTTTTTTCTTCGTTTTCGAAATTTCAGCGGAGTCACCTAGTGCAG”: 9080 fluorescence intensity (a.u.); “GTGGAGGGGCGGCGTTGGGCAGAGGGGCGGCACGGGTGAACGGAGTCACCTAGTGCAG”: 12800 fluorescence intensity (a.u.).
Next, “AAATACTTTGTACTAATGTAAGTTTATGTTCCTTTTATTCCGGAGTCACCTAGTGCAG”: 8320 fluorescence intensity (a.u.).
